Laboratory results as given in PMC12431657, “Discovery and mechanistic insights of dibenzoylmethane as a broad spectrum inhibitor of coronavirus” (PLOS Pathogens, 2025).
Like-named read-outs stand apart in the source and are kept apart here. The campaign covered roughly 3,300 compounds. About 60 (2%) showed an effect of 50% or more. The list shows a part of the results.

System: HCoV-OC43
Design: species or system RD; HTS, protection from HCoV-OC43 induced cell death, luminescent cell viability (CellCounting-Lite 2.0), inhibition rate
Conditions: 24 h post infection, 1 h compound pre-incubation, 10 µM, inhibitor

| Structure (SMILES) | OC43 Inhibition rate | OC43 Inhibition rate (OC43 Inhibition rate, 24 h) |
| --- | --- | --- |
| O=C1c2ccccc2-n2c1nc1ccccc1c2=O [Tryptanthrin] | -1% | – |
| C[C@@]1(CO)C[C@@H](O)C[C@@]2(C)[C@@H]3CC[C@](C)([C@@H](O)CO)C=C3CC[C@H]12 [Kirenol] | -0.2% | – |
| COc1cc2c(cc1O)C[C@@H]1NCCc3cc(OC)c(O)c-2c31 [Norisoboldine] | 0.7% | – |
| C[C@H]1O[C@@H](O[C@H]2CC[C@@]3(C)[C@@H](CC[C@]4(C)[C@@H]3C=C[C@]35OC[C@@]6(CCC(C)(C)C[C@H]63)[C@@H](O)C[C@]54C)[C@]2(C)CO)[C@H](O)[C@@H](O[C@@H]2O[C@H](CO)[C@@H](O)[C@H](O)[C@H]2O)[C@H]1O [Saikosaponin A] | 11.9% | – |
| COc1cc2c(O)c3c(c(-c4ccc5c(c4)OCO5)c2cc1OC)C(=O)OC3 [Diphyllin] | -0.3% | – |
| CC(C)=CCc1c(O)cc2oc3cc(O)c(O)c(CC=C(C)C)c3c(=O)c2c1O [Gamma-Mangostin] | 3.3% | – |
| C[C@@H]1C(=O)O[C@H](C)[C@H]1C[C@@H](O)[C@](C)(O)[C@H]1CC[C@@]2(O)C3=CC(=O)[C@@H]4C[C@@H](O)[C@@H](O)C[C@]4(C)[C@H]3CC[C@]12C [Cyasterone] | -0.4% | – |
| COc1ccc([C@@H]2CC(=O)c3c(O)cc(O[C@@H]4O[C@H](CO)[C@@H](O)[C@H](O)[C@H]4O)cc3O2)cc1 [Isosakuranin] | -2.3% | – |
| C/C1=C\[C@@H]2[C@H](C/C=C(/CO)[C@@H](O)[C@@H]3[C@@H](O)[C@@H](C)C[C@]3(O)C1=O)C2(C)C [17-Hydroxyisolathyrol] | 0.6% | – |
| CSC(=O)OCC1=C[C@H](O)[C@@H]2C(C(=O)O)=CO[C@@H](O[C@@H]3O[C@H](CO)[C@@H](O)[C@H](O)[C@H]3O)[C@H]12 [Paederosidic acid] | 1.2% | – |
| O=c1c(-c2ccccc2)coc2ccccc12 [Isoflavone] | -0.2% | – |
| OC[C@H]1O[C@@H](Oc2cc3c(O)cc(O)cc3[o+]c2-c2cc(O)c(O)c(O)c2)[C@H](O)[C@@H](O)[C@@H]1O [Delphinidin 3-glucoside (chloride)] | -0.6% | – |
| CC(=O)N[C@@H](CCC(=O)O)C(=O)O [N-Acetyl-L-glutamic acid] | -1.2% | – |
| CC(=O)OCC[N+](C)(C)C [Acetylcholine (iodide)] | – | -0.8% |
| COc1c(-c2ccccc2)oc2cc(O)cc(O)c2c1=O [3-O-Methylgalangin] | 13.9% | – |
| C=C(C)C(=O)O[C@H]1CC2=C[C@@H](C/C(C)=C/[C@H]3OC(=O)C(=C)[C@H]13)OC2=O [Deoxyelephantopin] | 0.2% | – |
| NCCOP(=O)(O)O [Phosphorylethanolamine] | -0.9% | – |
| C=CCCN1C[C@@H]2C[C@H](C1)c1cccc(=O)n1C2 [Rhombifoline] | -0.2% | – |
| CC(=O)O[C@H]1C[C@@]2(C)[C@@H](C[C@H]1O)C(=O)C=C1[C@@H]2CC[C@]2(C)[C@@H]([C@@](C)(O)[C@H](O)CCC(C)(C)O)CC[C@@]12O [2-O-Acetyl-20-hydroxyecdysone] | 0.4% | – |
| NC[C@H]1O[C@H](O[C@H]2[C@H](O[C@@H]3O[C@H](CO)[C@@H](O)[C@H]3O)[C@@H](O)[C@H](N)C[C@@H]2N)[C@H](N)[C@@H](O)[C@@H]1O [Ribostamycin (sulfate)] | 0.8% | – |

| Structure (SMILES) | OC43 Inhibition rate | OC43 Inhibition rate (OC43 Inhibition rate, 24 h) |
| --- | --- | --- |
| O=C(CCc1ccc(O)cc1)c1c(O)cc(O[C@@H]2O[C@H](CO)[C@@H](O)[C@H](O)[C@H]2O)cc1O [Trilobatin] | -0.5% | – |
| COc1ccc2[nH]cc(CCNC(C)=O)c2c1 [Melatonin] | -0.1% | – |
| C=CC[C@@H]1/C=C(\C)C[C@H](C)C[C@H](OC)[C@H]2O[C@@](O)(C(=O)C(=O)N3CCCC[C@H]3C(=O)O[C@H](/C(C)=C/[C@@H]3CC[C@@H](O)[C@H](OC)C3)[C@H](C)[C@@H](O)CC1=O)[C@H](C)C[C@@H]2OC [Tacrolimus (monohydrate)] | 5% | – |
| CC1=C(/C=C/C(C)=C/C=C/C(C)=C/C(=O)O)C(C)(C)CCC1=O [all-trans-4-Oxoretinoic acid] | 2.4% | – |
| O=C(O)CCC(=O)O [Disodium succinate] | – | -2.2% |
| CC1(C)CCC[C@](C)([C@H]2CC[C@]3(C)[C@@H]2[C@H](O)C[C@@H]2[C@@]4(C)CC[C@H](O)C(C)(C)[C@@H]4CC[C@]23C)O1 [Panaxadiol] | 24.1% | – |
| Cc1ncc([N+](=O)[O-])n1CCO [Metronidazole] | 16.2% | – |
| O=C(/C=C/c1ccc(O)c2c1[C@H](C(=O)O[C@H](Cc1ccc(O)c(O)c1)C(=O)O)[C@@H](c1ccc(O)c(O)c1)O2)O[C@H](Cc1ccc(O)c(O)c1)C(=O)O [Magnesium Lithospermate B] | 2.9% | – |
| CCCCCCCCC(=O)OCC [Ethyl nonanoate] | 2.4% | – |
| c1ccc2c(-c3nccs3)c[nH]c2c1 [Camalexin] | 23.4% | – |
| CC(C)=CCc1cc(-c2coc3cc(O)ccc3c2=O)ccc1O [Neobavaisoflavone] | 18.1% | – |
| C1CCN2C[C@H]3C[C@H](CN4CCCC[C@@H]34)[C@H]2C1 [(+)-Sparteine (sulfate pentahydrate)] | – | 3.3% |
| COc1cc2ccc(=O)oc2c(OC)c1O [Isofraxidin] | 0.6% | – |
| CCC/C=C1\OC(=O)C2=C1CC[C@@H](O)[C@H]2O [Senkyunolide H] | -0.5% | – |
| CC(=O)O[C@H]1C[C@H](O[C@H]2[C@@H](O)C[C@H](O[C@H]3[C@@H](O)C[C@H](O[C@H]4CC[C@@]5(C)[C@H](CC[C@@H]6[C@@H]5C[C@@H](O)[C@]5(C)[C@@H](C7=CC(=O)OC7)CC[C@]65O)C4)O[C@@H]3C)O[C@@H]2C)O[C@H](C)[C@H]1O[C@@H]1O[C@H](CO)[C@@H](O)[C@H](O)[C@H]1O [Lanatoside C] | -7.7% | – |
| O=C(O)C#Cc1ccccc1 [Phenylpropiolic acid] | -0.8% | – |
| O[C@H]1[C@H](O)[C@@H](O)[C@H](O)[C@@H](O)[C@@H]1O [Scyllo-Inositol] | -3.6% | – |
| O=C(O)CCC(=O)OC[C@@H](NC(=O)C(Cl)Cl)[C@H](O)c1ccc([N+](=O)[O-])cc1 [Chloramphenicol succinate (sodium)] | 0% | – |
| C[C@@H]1CCCC2=CC(=O)[C@@H]3[C@@H](C3(C)C)[C@]21C [Aristolone] | -0.3% | – |
| COc1c(O[C@@H]2O[C@H](CO)[C@@H](O)[C@H](O)[C@H]2O)cc2c(c1O)C(=O)c1c(cc(C)c(O)c1OC)C2=O [Aurantio-obtusin β-D-glucoside] | -0.2% | – |

Some values from above:
For OC43 Inhibition rate, C[C@@H]1CCCC2=CC(=O)[C@@H]3[C@@H](C3(C)C)[C@]21C [Aristolone] has the entry -0.3%
For OC43 Inhibition rate (OC43 Inhibition rate, 24 h), O=C(O)CCC(=O)O [Disodium succinate] has the entry -2.2%
For OC43 Inhibition rate, Cc1ncc([N+](=O)[O-])n1CCO [Metronidazole] has the entry 16.2%
For OC43 Inhibition rate, O=C(O)C#Cc1ccccc1 [Phenylpropiolic acid] has the entry -0.8%

Continued.

| Structure (SMILES) | OC43 Inhibition rate | OC43 Inhibition rate (OC43 Inhibition rate, 24 h) |
| --- | --- | --- |
| CC(C)=C[C@H]1C[C@](C)(O)[C@@H]2[C@H]3CC[C@@H]4[C@@]5(C)CC[C@H](O[C@@H]6OC[C@H](O)[C@H](O[C@@H]7O[C@H](CO)[C@@H](O)[C@H](O)[C@H]7O)[C@H]6O[C@@H]6O[C@@H](CO)[C@H](O)[C@H]6O)C(C)(C)[C@@H]5CC[C@@]4(C)[C@@]34CO[C@@]2(C4)O1 [Bacopaside X] | -2.4% | – |
| CCn1cc(C(=O)O)c(=O)c2ccc(C)nc21 [Nalidixic acid] | 0.1% | – |
| O=C(O)/C=C/c1c[nH]c2ccccc12 [trans-3-Indoleacrylic acid] | 1.8% | – |
| COc1ccc(-c2oc3c(CC=C(C)C)c(O[C@@H]4O[C@H](CO)[C@@H](O)[C@H](O)[C@H]4O)cc(O)c3c(=O)c2O[C@@H]2O[C@@H](C)[C@H](O)[C@@H](O)[C@H]2O)cc1 [Icariin] | 0.6% | – |
| C[C@H]1[C@@H](O)O[C@@H]2O[C@@]3(C)CC[C@H]4[C@H](C)CC[C@@H]1[C@@]24OO3 [Dihydroartemisinin] | 19.3% | – |
| C/C=C1\C[C@@H](C)[C@](O)(CO)C(=O)OCC2=CCN3CC[C@@H](OC1=O)[C@@H]23 [Usaramine] | -5.7% | – |
| CC1CC[C@@]2(OC1)O[C@H]1C[C@H]3[C@@H]4CC=C5C[C@@H](O)C[C@@H](O)[C@]5(C)[C@H]4CC[C@]3(C)[C@H]1[C@@H]2C (stereo partly drawn) [25(R,S)-Ruscogenin] | 25.3% | – |
| COc1ccc(-c2cc(=O)c3c(OC)cc(OC)c(OC)c3o2)cc1 [6-Demethoxytangeretin] | 6.2% | – |
| Nc1nc(=O)c2[nH]c(=O)cnc2[nH]1 [Xanthopterin (hydrate)] | -0.2% | – |
| OC[C@@H](O)[C@@H](O)[C@@H](O)[C@@H](O)CO [Allitol] | -2.4% | – |
| O=c1c(O)c(-c2cc(O)c(O)c(O)c2)oc2cc(O)cc(O)c12 [Myricetin] | 0% | – |
| Oc1cc(O)c2ccc(-c3ccc(O)c(O)c3)[o+]c2c1 [Luteolinidin (chloride)] | 0.1% | – |
| O=C(O)c1cc2ccccc2[nH]1 [Indole-2-carboxylic acid] | 0.8% | – |
| NC1CCCNC1=O (stereo not shown) [3-Amino-2-piperidinone] | -0.7% | – |
| O=c1c(O)cccc2cc(O)c(O)c(O)c12 [Purpurogallin] | 0.2% | – |
| CC(=O)N[C@@H](CC(=O)N[C@@H](CCC(=O)O)C(=O)O)C(=O)O [Spaglumic Acid] | -3% | – |
| COc1ccc(-c2cc(=O)c3c(O)cc(O)cc3o2)cc1 [Acacetin] | 23.4% | – |
| COC(=O)[C@@H]1[C@H]2C[C@H]3c4[nH]c5ccccc5c4CCN3C[C@@H]2CC[C@@H]1O [Yohimbine] | – | 1.9% |
